Results: doi:10.1101/2025.05.24.653377

Chains of the proteins cited; added tags and fusions are not shown. Lines headed by an entry give the natural chain unless they say otherwise; changes in a name come on top.
UniProt P19267: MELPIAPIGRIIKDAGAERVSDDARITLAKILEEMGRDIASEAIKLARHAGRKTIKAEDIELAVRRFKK

How the values were obtained:
[1] = biological target: T1, HHoB (UniProt A0A1Q9NRY6); assay: cryo-EM
[2] = biological target: T1, HHoB; assay: EMSA
[3] = biological target: T1, HHoB; assay: MST; settings: 1 mM MgCl2, value not in text
[4] = biological target: T2, HHoB mut2 (UniProt A0A1Q9NRY6); assay: cryo-EM; settings: 100 mM Mg2+, less ordered hypernucleosomes
[5] = biological target: T3, HHoB mut1 (UniProt A0A1Q9NRY6); assay: cryo-EM; settings: 1 mM MgCl2, open and closed classes, smaller opening
[6] = biological target: T2, HHoB mut2; assay: EMSA; settings: similar to wild type
[7] = biological target: T3, HHoB mut1; assay: EMSA; settings: similar to wild type
[8] = biological target: HMfB (Methanothermus fervidus (M. fervidus)) (UniProt P19267); assay: EMSA; settings: single shifted band
[9] = tested on: HHoF; assay: EMSA
[10] = tested on: HHoG; assay: EMSA
[11] = 10 mM MgCl2, single cooperative shift
[12] = no Mg2+, ladder-like stepwise shifts

Measured: binding result

ACCAGTTTTATTAGATCAACATATCAAGAAGTTACTAAAATCCGTTAAAAAAATAACAACACCCTGAATTTGACCGTAGTGATTAAGCTCAGTAATGGAATAAAGGAGAAAAAAATTTTGAAATTTAAGAAGAAGATTTATTTTTGAAACAGCGACTACGAAGAAAAAAATTTAAAAGTCAAGCTATTTTATTTGGAAGCAGACAAAGTAACGTCTGTTTCTTTTATTGTTCGACGACCGCTGTTTCGTGCAATTTCTACTGAATATCTGGCTACTTCGAGACCACGCTCTCCTAATAAATCGTTCAGTGCTTTAATTGCACCACTTGATACACGGAAAGCGCCGGCTTCACGGATTAATTTCTCTACTTTTGCAGAAGCGAAAGCTTGTCCTTTAGATCGGCTAGATCTACGTCGACTT (double strand) [HeimC3_31310 420 bp]
binds: [1]; 100 mM Mg2+, hypernucleosome | [2]; comparable to Widom601, more shifted bands

AGGGTCACATGGGTGTTTGGCACTACCGACAGT (double strand) [33 bp random DNA]
binds: [3]

CTGGAGAATCCCGGTGCCGAGGCCGCTCAATTGGTCGTAGACAGCTCTAGCACCGCTTAAACGCACGTACGCGCTGTCCCCCGCGTTTTAACCGCCAAGGGGATTACTCCCTAGTCTCCAGGCACGTGTCAGATATATACATCCTGT (double strand) [Widom601 147 bp]
binds: [4] | [5] | [1]; 0 Mg2+, open nucleosome, EMD-53390 | [1]; 1 mM MgCl2, closed nucleosome | [1]; 1 mM MgCl2, open nucleosome | [1]; 100 mM Mg2+, closed hypernucleosome, 2.6 A | [6] | [7] | [8] | [2]; [11] | [2]; [12] | [9]; [11] | [9]; [12] | [10]; [11] | [10]; [12]

The exact form of at least one protein or probe is not confirmed. For part of these data: At least one verdict rests on a figure or table, not on a statement of the authors.
